Library screening results

Chains of the proteins cited; added tags and fusions are not shown.
UniProt E9BF75, entry or part of it: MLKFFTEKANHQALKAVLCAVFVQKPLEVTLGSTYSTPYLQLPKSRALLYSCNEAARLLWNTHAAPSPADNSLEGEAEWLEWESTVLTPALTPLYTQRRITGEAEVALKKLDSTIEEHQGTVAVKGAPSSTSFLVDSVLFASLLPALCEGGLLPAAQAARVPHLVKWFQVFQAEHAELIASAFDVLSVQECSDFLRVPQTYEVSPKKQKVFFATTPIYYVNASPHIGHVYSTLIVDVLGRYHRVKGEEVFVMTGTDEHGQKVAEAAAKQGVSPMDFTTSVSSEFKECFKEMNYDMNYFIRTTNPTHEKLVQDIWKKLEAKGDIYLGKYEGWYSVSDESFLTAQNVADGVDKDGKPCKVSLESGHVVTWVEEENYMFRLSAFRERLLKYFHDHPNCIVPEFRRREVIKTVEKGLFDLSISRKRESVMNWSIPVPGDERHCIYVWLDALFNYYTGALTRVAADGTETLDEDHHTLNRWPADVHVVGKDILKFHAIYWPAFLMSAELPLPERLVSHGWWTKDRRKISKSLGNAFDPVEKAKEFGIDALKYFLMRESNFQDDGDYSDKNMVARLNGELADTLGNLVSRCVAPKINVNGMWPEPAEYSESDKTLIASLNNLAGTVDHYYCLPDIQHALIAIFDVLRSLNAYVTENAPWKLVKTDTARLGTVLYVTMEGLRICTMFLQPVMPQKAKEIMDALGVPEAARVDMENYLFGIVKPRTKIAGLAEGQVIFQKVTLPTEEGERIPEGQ

Data taken from ChEMBL document CHEMBL3988442, “University of Dundee, Small-Polar-MMV Screening Library” (2021).

LdMetRS: 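Methionyl-tRNA synthetase (putative), Leishmania donovani (UniProt E9BF75). Primary screen of methionyl-tRNA synthetase; the read-out is not stated. The test concentration is not given. Values are per cent inhibition. Size under these conditions: about 68,000 compounds, about 24 of them at 50% or above in at least one test.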
Mtb heat-shock: 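Assay on Mycobacterium tuberculosis, filed only as a heat shock assay from Cornell; the read-out is not stated. The concentration is filed as 10 mM, unlikely as a test dose, so the dose is not known. The record gives no direction; compounds that gave an IC50 in retests scored well above the rest, so higher reads as stronger inhibition. About 69,000 compounds were tested under these conditions; 1.4% (about 930) showed 50% or more at least once.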

Results are percentages, as filed. How 0% and 100% were set is not recorded. Most values in the screen are low, and negative values occur. Compounds were drawn at random from those tested, without regard to their results.

With CCN1CCN(S(=O)(=O)c2cnc(NC(C)=O)s2)CC1 the screen gave LdMetRS: 7.639%; Mtb heat-shock: -7.092%.
With CC(C)N1CCC(c2nc3ccc(-c4ccnn4C)cn3n2)CC1.O=C(O)C(F)(F)F the screen gave Mtb heat-shock: -26.08%.
With Cc1cnc(N2CCC(c3ccncc3)CC2)nc1-c1ccnn1C the screen gave LdMetRS: 6.494%; Mtb heat-shock: 12.11%.
With COc1ccc(-n2c(SCC(=O)O)nnc2-c2cn[nH]c2)cc1 the screen gave Mtb heat-shock: -22.9%.
With Cc1nc2c(c(NCC3Cc4ccccc4CN3C)n1)CCNCC2 (stereo not shown) the screen gave LdMetRS: -6.143%; Mtb heat-shock: -17.62%.
With CC(C)(C)n1ncc2c(=O)n(CC(=O)NCc3ccccc3)cnc21 the screen gave LdMetRS: -0.7194%; Mtb heat-shock: 9.613%.
With CCn1cc(CN2CCCN(C(=O)c3ccc(C)o3)CC2)cn1 the screen gave LdMetRS: 13.26%; Mtb heat-shock: -8.758%.
With COc1cccc(CN(C)C(C)c2ccon2)c1OCCn1ccnc1 (stereo not shown) the screen gave LdMetRS: 8.493%; Mtb heat-shock: -30.51%.
With COc1ccc(CN2CCN(c3ncc(Cl)cn3)CC2)cc1 the screen gave LdMetRS: 6.25%; Mtb heat-shock: -15.93%.
With CC1CN(C)CCN1C(=O)c1cnn(-c2ccc(Cl)cc2)c1 (stereo not shown) the screen gave LdMetRS: 11.81%; Mtb heat-shock: -16.87%.
With COc1cccc(CNC2CCc3ccc(C)cc32)n1 (stereo not shown) the screen gave LdMetRS: 8.791%; Mtb heat-shock: 6.41%.
With CO[C@H]1CCN(c2nnc(C)s2)C[C@@H]1Cc1cccc(C)c1.O=C(O)C(F)(F)F the screen gave Mtb heat-shock: -14.71%.
With CC(O)CNCc1c(C(C)C)nn(C)c1N1CCOCC1 (stereo not shown) the screen gave LdMetRS: 15.71%; Mtb heat-shock: -0.108%.
With Cc1ncsc1CN1C[C@H](C(=O)N2CCCO2)[C@@H]2CCO[C@@H]2C1 the screen gave LdMetRS: 13.5%.
With CC(C)NC(=O)NCc1cc(-c2ccco2)n(CC(F)(F)F)n1 the screen gave LdMetRS: 12.86%; Mtb heat-shock: -9.87%.
With CCc1nsc(N2CCN(C(=O)c3ccnc(N(C)C)c3)CC2)n1 the screen gave LdMetRS: 4.945%; Mtb heat-shock: 8.289%.
With O=C(O)C(F)(F)F.O=C([C@H]1CCCO1)N1CCOC2(CCCN(c3ncccc3F)C2)C1 (stereo partly shown) the screen gave Mtb heat-shock: -0.5206%.
With Cc1cccc(CN2CCOC3(CCCN(CC(=O)N(C)C)C3)C2)n1.O=C(O)C(F)(F)F.O=C(O)C(F)(F)F (stereo not shown) the screen gave Mtb heat-shock: 8.575%.
With Cc1nc(CN2CCc3c(nc(C4CC4)n3C)C2)nc2ccccc12 the screen gave LdMetRS: -6.203%; Mtb heat-shock: -5.936%.
With CCn1cc(NC(=O)C2CCN(Cc3nc(C)c(C)s3)CC2)cn1 the screen gave LdMetRS: 12.36%; Mtb heat-shock: -0.3357%.
With CC(C)(CNc1ccc2ccc(F)cc2n1)NS(C)(=O)=O the screen gave LdMetRS: 22.07%; Mtb heat-shock: -12.62%.
With Cc1cccc(C)c1OCCC(=O)N1CCC(c2nncn2C)CC1 the screen gave LdMetRS: 6.883%; Mtb heat-shock: -24.94%.
With Cc1ncccc1C(=O)Nc1ccc2ccn(CCN(C)C)c2c1 the screen gave LdMetRS: 13.03%; Mtb heat-shock: 0.3498%.
With CN[C@@H](C)C(=O)N(Cc1cccc(C)c1)Cc1ccccc1OC the screen gave LdMetRS: 20.5%; Mtb heat-shock: -8.76%.
With CN1CCN(c2ncnc3c2CCN(Cc2nccn2C)CC3)CC1 the screen gave LdMetRS: 3.623%; Mtb heat-shock: -9.99%.
With CCCS(=O)(=O)NC1CCN(c2cccc(F)c2C#N)CC1 the screen gave LdMetRS: 15.68%; Mtb heat-shock: 11.67%.
With Cc1nccn1CCCNc1ncccc1C#N the screen gave LdMetRS: 15.68%; Mtb heat-shock: 3.715%.
With CN1CCN(C)C2(CCN(Cc3ccc(C4CCCO4)s3)CC2)C1 (stereo not shown) the screen gave LdMetRS: 18.45%; Mtb heat-shock: -3.619%.
With CN1CCN2CCN(Cc3ccccc3Cn3cccn3)CC2C1 (stereo not shown) the screen gave LdMetRS: 9.278%; Mtb heat-shock: -12.84%.
With OCCN1CCN(Cc2coc(-c3ccccc3Cl)n2)CC1 the screen gave LdMetRS: 8.761%; Mtb heat-shock: -178.5%.
With O[C@H]1COCCN(Cc2cccc(C(F)(F)F)c2)C1 the screen gave LdMetRS: -0.5495%; Mtb heat-shock: -0.4701%.
With O=C(Nc1ccccc1-c1ccccc1)N1C[C@@H]2CNC[C@]2(C(=O)O)C1 the screen gave LdMetRS: 7.902%.
With COC[C@@H]1CCC[C@@]12CN(Cc1ccco1)CCO2.O=C(O)C(F)(F)F the screen gave Mtb heat-shock: -18.61%.
With CNC(=O)c1cccc(Nc2cnn(C)c2)c1 the screen gave LdMetRS: 3.377%; Mtb heat-shock: 6.276%.

Repeated from the top, 3 entries:

{"structure": "CCN1CCN(S(=O)(=O)c2cnc(NC(C)=O)s2)CC1", "LdMetRS": 7.639, "Mtb heat-shock": -7.092}
{"structure": "CC(C)N1CCC(c2nc3ccc(-c4ccnn4C)cn3n2)CC1.O=C(O)C(F)(F)F", "Mtb heat-shock": -26.08}
{"structure": "Cc1cnc(N2CCC(c3ccncc3)CC2)nc1-c1ccnn1C", "LdMetRS": 6.494, "Mtb heat-shock": 12.11}